Results are given in words; binding and its absence hold for the method and conditions named. Binding seen in cells or lysates may run through a third protein. Binding calls can cover weak binding; strength is not graded here.
Tests used:
Assay in all cases: co-IP; HEK293T co-transfected for 48 h; lysis in 20 mM Tris pH 7.4, 150 mM NaCl, 1% Triton X-100; anti-Flag beads overnight at 4 °C, three washes, western blot; for the Ezh2-M mutant panel cells were pre-treated with MG132 for 6 h
full-length Ezh2 = full-length Ezh2 (UniProt Q15910)
[1] = target: Ezh2-M (amino acid residues 330-530) (UniProt Q15910)
Ezh2-M T350A/T492A = Ezh2-M T350A/T492A (UniProt Q15910)

By UniProt entry, the sequences of proteins in these tests, tags left out. Where a name states a change or a piece, a line headed by the entry shows the natural chain unless it says otherwise. Chains listed by the source or under a name are the forms on record and can include a tag or linker. Residues count along the entry.
Ezh2-M (Q15910, residues 325-525): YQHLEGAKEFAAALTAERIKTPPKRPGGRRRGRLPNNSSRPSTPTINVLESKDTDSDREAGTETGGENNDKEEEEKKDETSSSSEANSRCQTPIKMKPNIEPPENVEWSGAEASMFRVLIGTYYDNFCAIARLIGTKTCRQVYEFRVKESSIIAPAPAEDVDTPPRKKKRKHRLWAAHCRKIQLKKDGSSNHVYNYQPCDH
full-length Ezh2 (Q15910, form named): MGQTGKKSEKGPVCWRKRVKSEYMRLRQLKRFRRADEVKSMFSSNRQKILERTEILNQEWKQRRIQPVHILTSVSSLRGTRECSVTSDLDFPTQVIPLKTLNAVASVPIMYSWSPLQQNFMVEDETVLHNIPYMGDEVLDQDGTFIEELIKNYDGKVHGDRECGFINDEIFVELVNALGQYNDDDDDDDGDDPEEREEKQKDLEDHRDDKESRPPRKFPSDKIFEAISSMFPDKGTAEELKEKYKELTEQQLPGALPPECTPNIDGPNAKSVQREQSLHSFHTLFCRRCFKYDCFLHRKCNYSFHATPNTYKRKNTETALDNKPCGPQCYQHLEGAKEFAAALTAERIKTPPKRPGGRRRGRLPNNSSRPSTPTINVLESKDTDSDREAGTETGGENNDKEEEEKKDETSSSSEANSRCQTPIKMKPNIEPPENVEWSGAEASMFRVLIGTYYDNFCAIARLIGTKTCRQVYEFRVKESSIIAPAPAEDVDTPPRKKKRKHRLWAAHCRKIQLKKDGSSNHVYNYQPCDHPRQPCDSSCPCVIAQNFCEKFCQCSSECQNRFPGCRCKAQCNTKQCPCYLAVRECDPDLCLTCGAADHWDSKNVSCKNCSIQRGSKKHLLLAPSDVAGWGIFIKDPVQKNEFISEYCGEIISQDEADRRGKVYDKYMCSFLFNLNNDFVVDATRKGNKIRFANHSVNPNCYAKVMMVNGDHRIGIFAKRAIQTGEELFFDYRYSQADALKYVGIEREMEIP
Ezh2-M T350A/T492A (Q15910, form named): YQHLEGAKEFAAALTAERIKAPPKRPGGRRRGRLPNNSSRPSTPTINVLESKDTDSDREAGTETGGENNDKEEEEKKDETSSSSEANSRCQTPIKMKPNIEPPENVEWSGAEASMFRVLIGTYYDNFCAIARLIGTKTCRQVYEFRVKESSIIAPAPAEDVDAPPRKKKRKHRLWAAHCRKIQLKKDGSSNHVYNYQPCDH
UniProt Q9HAU4: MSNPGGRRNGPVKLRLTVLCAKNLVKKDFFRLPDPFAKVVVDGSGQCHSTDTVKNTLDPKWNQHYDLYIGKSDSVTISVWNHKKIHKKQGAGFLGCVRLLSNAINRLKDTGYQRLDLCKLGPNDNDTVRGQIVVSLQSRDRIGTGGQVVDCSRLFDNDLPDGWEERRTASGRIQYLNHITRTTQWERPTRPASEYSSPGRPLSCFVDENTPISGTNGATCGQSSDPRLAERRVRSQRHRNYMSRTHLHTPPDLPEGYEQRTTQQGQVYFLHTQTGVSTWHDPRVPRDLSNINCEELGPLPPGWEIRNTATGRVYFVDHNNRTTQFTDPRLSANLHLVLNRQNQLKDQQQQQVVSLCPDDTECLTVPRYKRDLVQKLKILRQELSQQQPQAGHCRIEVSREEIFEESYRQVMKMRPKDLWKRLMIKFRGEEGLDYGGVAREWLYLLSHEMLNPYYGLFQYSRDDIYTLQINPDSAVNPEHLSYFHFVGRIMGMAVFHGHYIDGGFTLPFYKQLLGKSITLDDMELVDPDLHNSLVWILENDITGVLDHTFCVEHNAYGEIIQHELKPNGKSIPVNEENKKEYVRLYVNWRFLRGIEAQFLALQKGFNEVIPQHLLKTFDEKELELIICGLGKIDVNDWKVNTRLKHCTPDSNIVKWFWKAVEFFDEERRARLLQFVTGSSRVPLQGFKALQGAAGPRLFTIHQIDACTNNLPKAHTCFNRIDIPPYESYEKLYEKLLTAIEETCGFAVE

Row | binding (full-length Ezh2) | binding [1] | binding (Ezh2-M T350A/T492A) | Substance
1 | no binding |  |  | C2 domain of Smurf2 (from UniProt Q9HAU4) (domain or fragment)
2 | binds | binds | binds | HECT domain of Smurf2 (from UniProt Q9HAU4) (domain or fragment)
